Source: PubChem BioAssay AID1347423 (Functional Genomics Laboratory (NCATS/FGL), 2020)
About 210 (0.4%) of roughly 52,000 sequences were called active.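 Rule for the calls: active = gene whose silencing raises cell survival under the drug, median off-target-corrected z-score across its silencing RNAs 2 or more; inactive = the rest.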 Some of the results follow.

experiment: Resistance to Poly (ADP-Ribose) Polymerase inhibitor: Gene Identification via Genome-wide siRNA Screen; conditions: mouse BRCA2 R2336H ES cells, olaparib, CellTiter-Glo viability; hits give high values
Procedure, shortened: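 Mouse BRCA2 R2336H ES cells were reverse-transfected with siRNA (20 nM final), treated at 48 h with 500 nM olaparib, and read by CellTiter-Glo after 72 h. Scores: MAD-based z per siRNA, median per gene, seed off-target correction.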

Sequence | z-score
GGAGGAAAGGGAAGAAUUUTT against Rnf125 | inactive: -0.794
GGCCUCAACUAAGAACCCUTT against 2010005A06Rik | inactive: 0.206
GCUACGGAACCUCUAGACATT against Cbln3 | inactive: 2.24
GCUUAUAAUGGCAAUAUUGTT against Nvl | inactive: 0.272
GGCCACUUAAAUCAGAACUTT against Hoxc8 | inactive: 0.298
CCACAAUUUUUUCUGCCUCTT against Olfr492 | inactive: 0.658
GCACUACCUGUAUUAAACUTT against Efhd2 | inactive: 0.886
GCCCAAGGUAACAACAAGCTT against Rtn4r | inactive: -0.828
CGAUUUGCAGCCCUCAUGATT against 6230427J02Rik | inactive: -1.62
GGGCUAUGUUGUCUCAAAATT against 2210006M16Rik | inactive: 1.05
GGCAGUGCCAAUGAACAAGTT against Tceb2 | inactive: 0.426
GGAUGGAAUGCAUCGAUUATT against Adipor2 | inactive: 1.31
CCAGGAACCAGAAAAAGAUTT against Aven | inactive: 0.952
CGACAACGACAUCAUGGAATT against Sfrp2 | inactive: -0.0761
GCCUUAAGUAUUGUUACUUTT against Tnfrsf25 | inactive: -0.337
GGUCACAAUUGCGCUAUGATT against MGC58970 | inactive: -2.65
GGCUAAAUUCUACUUGAUATT against Ppfibp1 | inactive: 0.105
GGAUUCUUGAGCAGAUAGCTT against Gbp4 | inactive: -0.148
GGCAAUGGUUCAGAGGACUTT against Wbscr21 | inactive: -1.03
GGAGCAUCCCGACUACAAGTT against Sox21 | inactive: 0.0612
GGUUGUAGACGUAAAUGACTT against Pcdhgc3 | inactive: 1.04
GCACUUGCUAUUAGUGUCCTT against Rhod | inactive: 0.337
GGAAUUUCAGGAGAUACUGTT against 1110035L05Rik | inactive: -1.02
GCAGAACGUAUUCUGAAACTT against Uap1 | inactive: -0.312
GGAGCCAAGUGUACAGUCUTT against Stk19 | inactive: -0.31
GGAACAAUUCUGGGUAAUUTT against Bcl2l10 | inactive: -1.53
GGCAACCUUUUUAAAGAAGTT against D4Bwg0951e | inactive: 0.365
GGUUCUGCACAUCUGAACATT against Cst3 | inactive: -1.21
GGUCAGAGCCAAUUUCUAUTT against Kcnmb1 | inactive: -0.128

2 records drawn at random from those above:
Sequence | z-score
GGCCUCAACUAAGAACCCUTT against 2010005A06Rik | inactive: 0.206
GGCCACUUAAAUCAGAACUTT against Hoxc8 | inactive: 0.298
